# Assay results as given in the supplement of paper PMC8728848.
# The other results are listed elsewhere or left out.
# Assays:
# Experiment in all cases: glycan array binding signal (z-score within array); higher = stronger binding
# Conditions in all cases: glycan notation: IUPAC condensed, linker removed
# [1] = biological target: Neu5Ac(a2-6)Gal(b1-4)GlcNAc(b1-3)[Neu5Ac(a2-6)Gal(b1-4)GlcNAc(b1-6)]GalNAc
# Method in brief: (§1)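 Columns mapping to the same glycan were averaged after glycan names were converted to IUPAC-condensed notation. The data come from 3228 arrays in the Consortium for Functional Glycomics database, limited to those with an available protein sequence. Binding is reported as a within-array Z-score averaged across arrays of one protein sequence and across linkers.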
# [2] = biological target: Neu5Ac(a2-6)Gal(b1-4)GlcNAc(b1-6)GalNAc
# Method in brief: as §1
# [3] = biological target: Neu5Ac(a2-6)Gal(b1-4)GlcNAc(b1-6)[Gal(b1-3)GlcNAc(b1-3)]Gal(b1-4)Glc
# Method in brief: as §1
# [4] = biological target: Neu5Ac(a2-6)Gal(b1-4)GlcNAc(b1-6)[Gal(b1-3)]GalNAc
# Method in brief: as §1
# [5] = biological target: Neu5Ac(a2-6)Gal(b1-4)GlcNAc6S
# Method in brief: as §1
# [6] = biological target: Neu5Ac(a2-6)GalNAc
# Method in brief: as §1
# [7] = biological target: Neu5Ac(a2-6)GalNAc(b1-4)GlcNAc
# Method in brief: as §1
# [8] = biological target: Neu5Ac(a2-6)GalNAc(b1-4)GlcNAc6S
# Method in brief: as §1
# [9] = biological target: Neu5Ac(a2-6)GlcNAc(b1-4)GlcNAc
# Method in brief: as §1
# [10] = biological target: Neu5Ac(a2-6)GlcNAc(b1-4)GlcNAc(b1-4)GlcNAc
# Method in brief: as §1
# [11] = biological target: Neu5Ac(a2-8)Neu5Ac
# Method in brief: as §1
# [12] = biological target: Neu5Ac(a2-8)Neu5Ac(a2-3)Gal(b1-3)GalNAc(b1-4)[Neu5Ac(a2-3)]Gal(b1-4)Glc
# Method in brief: as §1
# [13] = biological target: Neu5Ac(a2-8)Neu5Ac(a2-3)Gal(b1-3)GalNAc(b1-4)[Neu5Ac(a2-8)Neu5Ac(a2-3)]Gal(b1-4)Glc
# Method in brief: as §1
# [14] = biological target: Neu5Ac(a2-8)Neu5Ac(a2-3)Gal(b1-4)Glc
# Method in brief: as §1
# [15] = biological target: Neu5Ac(a2-8)Neu5Ac(a2-3)Gal(b1-4)GlcNAc
# Method in brief: as §1
# [16] = biological target: Neu5Ac(a2-8)Neu5Ac(a2-3)[Gal(b1-3)GalNAc(b1-4)]Gal(b1-4)Glc
# Method in brief: as §1
# [17] = biological target: Neu5Ac(a2-8)Neu5Ac(a2-3)[GalNAc(b1-4)]Gal(b1-4)Glc
# Method in brief: as §1
# [18] = biological target: Neu5Ac(a2-8)Neu5Ac(a2-8)Neu5Ac
# Method in brief: as §1
# [19] = biological target: Neu5Ac(a2-8)Neu5Ac(a2-8)Neu5Ac(a2-3)Gal(b1-4)Glc
# Method in brief: as §1
# [20] = biological target: Neu5Ac(a2-8)Neu5Ac(a2-8)Neu5Ac(a2-3)[Gal(b1-3)GalNAc(b1-4)]Gal(b1-4)Glc
# Method in brief: as §1
# [21] = biological target: Neu5Ac(a2-8)Neu5Ac(a2-8)Neu5Ac(a2-3)[GalNAc(b1-4)]Gal(b1-4)Glc
# Method in brief: as §1
# [22] = biological target: Neu5Ac(a2-8)Neu5Ac(a2-8)Neu5Ac(a2-8)Neu5Ac(a2-3)[GalNAc(b1-4)]Gal(b1-4)Glc
# Method in brief: as §1
# [23] = biological target: Neu5Ac(a2-8)Neu5Gc(a2-3)Gal(b1-4)GlcNAc
# Method in brief: as §1
# [24] = biological target: Neu5Ac(b2-6)Gal(b1-4)GlcNAc
# Method in brief: as §1
# [25] = biological target: Neu5Ac(b2-6)GalNAc
# Method in brief: as §1
# [26] = biological target: Neu5Ac9Ac(a2-3)Gal(b1-3)GlcNAc
# Method in brief: as §1
# [27] = biological target: Neu5Ac9Ac(a2-3)Gal(b1-4)GlcNAc
# Method in brief: as §1
# [28] = biological target: Neu5Ac9Ac(a2-6)Gal(b1-4)GlcNAc
# Method in brief: as §1
# [29] = biological target: Neu5Gc(a2-3)Gal(b1-3)GlcNAc
# Method in brief: as §1
# [30] = biological target: Neu5Gc(a2-3)Gal(b1-3)[Fuc(a1-4)]GlcNAc
# Method in brief: as §1
# [31] = biological target: Neu5Gc(a2-3)Gal(b1-4)Glc
# Method in brief: as §1
# [32] = biological target: Neu5Gc(a2-3)Gal(b1-4)GlcNAc
# Method in brief: as §1
# [33] = biological target: Neu5Gc(a2-3)Gal(b1-4)GlcNAc(b1-3)Gal(b1-4)GlcNAc(b1-2)Man(a1-3)[Neu5Gc(a2-3)Gal(b1-4)GlcNAc(b1-3)Gal(b1-4)GlcNAc(b1-2)Man(a1-6)]Man(b1-4)GlcNAc(b1-4)GlcNAc
# Method in brief: as §1
# [34] = biological target: Neu5Gc(a2-3)Gal(b1-4)[Fuc(a1-3)]GlcNAc
# Method in brief: as §1
# [35] = biological target: Neu5Gc(a2-6)Gal(b1-4)GlcNAc
# Method in brief: as §1
# [36] = biological target: Neu5Gc(a2-6)GalNAc
# Method in brief: as §1
# [37] = biological target: Neu5Gc(a2-8)Neu5Ac(a2-3)Gal(b1-4)GlcNAc
# Method in brief: as §1
# [38] = biological target: Neu5Gc(a2-8)Neu5Gc(a2-3)Gal(b1-4)GlcNAc
# Method in brief: as §1
binder,measurement,setting,value
"MtEccB1 (Mycobacterium tuberculosis H37Rv), O69734 (protein) MGLRLTTKVQVSGWRFLLRRLEHAIVRRDTRMFDDPLQFYSRSIALGIVVAVLILAGAALLAYFKPQGKLGGTSLFTDRATNQLYVLLSGQLHPVYNLTSARLVLGNPANPATVKSSELSKLPMGQTVGIPGAPYATPVSAGSTSIWTLCDTVARADSTSPVVQTAVIAMPLEIDASIDPLQSHEAVLVSYQGETWIVTTKGRHAIDLTDRALTSSMGIPVTARPTPISEGMFNALPDMGPWQLPPIPAAGAPNSLGLPDDLVIGSVFQIHTDKGPQYYVVLPDGIAQVNATTAAALRATQAHGLVAPPAMVPSLVVRIAERVYPSPLPDEPLKIVSRPQDPALCWSWQRSAGDQSPQSTVLSGRHLPISPSAMNMGIKQIHGTATVYLDGGKFVALQSPDPRYTESMYYIDPQGVRYGVPNAETAKSLGLSSPQNAPWEIVRLLVDGPVLSKDAALLEHDTLPADPSPRKVPAGASGAP",glycan array binding signal (z-score),[1],1.19
same,glycan array binding signal (z-score),[2],0.463
same,glycan array binding signal (z-score),[3],-0.947
same,glycan array binding signal (z-score),[4],-0.358
same,glycan array binding signal (z-score),[5],-0.979
same,glycan array binding signal (z-score),[6],-0.143
same,glycan array binding signal (z-score),[7],0.226
same,glycan array binding signal (z-score),[8],0.044
same,glycan array binding signal (z-score),[9],0.959
same,glycan array binding signal (z-score),[10],0.157
same,glycan array binding signal (z-score),[11],0.148
same,glycan array binding signal (z-score),[12],0.737
same,glycan array binding signal (z-score),[13],-0.114
same,glycan array binding signal (z-score),[14],-0.908
same,glycan array binding signal (z-score),[15],-1.13
same,glycan array binding signal (z-score),[16],1.64
same,glycan array binding signal (z-score),[17],0.156
same,glycan array binding signal (z-score),[18],-1.29
same,glycan array binding signal (z-score),[19],0.746
same,glycan array binding signal (z-score),[20],-0.823
same,glycan array binding signal (z-score),[21],-0.415
same,glycan array binding signal (z-score),[22],-0.146
same,glycan array binding signal (z-score),[23],-1.21
same,glycan array binding signal (z-score),[24],0.69
same,glycan array binding signal (z-score),[25],1.46
same,glycan array binding signal (z-score),[26],-0.651
same,glycan array binding signal (z-score),[27],-0.456
same,glycan array binding signal (z-score),[28],-0.819
same,glycan array binding signal (z-score),[29],-0.412
same,glycan array binding signal (z-score),[30],-0.232
same,glycan array binding signal (z-score),[31],0.483
same,glycan array binding signal (z-score),[32],-0.509
same,glycan array binding signal (z-score),[33],-0.707
same,glycan array binding signal (z-score),[34],0.844
same,glycan array binding signal (z-score),[35],-0.129
same,glycan array binding signal (z-score),[36],-1.4
same,glycan array binding signal (z-score),[37],0.304
same,glycan array binding signal (z-score),[38],0.177

# 2 entries from above in another layout.
binder | measurement | setting | value
MtEccB1 (Mycobacterium tuberculosis H37Rv), O69734 (protein) MGLRLTTKVQVSGWRFLLRRLEHAIVRRDTRMFDDPLQFYSRSIALGIVVAVLILAGAALLAYFKPQGKLGGTSLFTDRATNQLYVLLSGQLHPVYNLTSARLVLGNPANPATVKSSELSKLPMGQTVGIPGAPYATPVSAGSTSIWTLCDTVARADSTSPVVQTAVIAMPLEIDASIDPLQSHEAVLVSYQGETWIVTTKGRHAIDLTDRALTSSMGIPVTARPTPISEGMFNALPDMGPWQLPPIPAAGAPNSLGLPDDLVIGSVFQIHTDKGPQYYVVLPDGIAQVNATTAAALRATQAHGLVAPPAMVPSLVVRIAERVYPSPLPDEPLKIVSRPQDPALCWSWQRSAGDQSPQSTVLSGRHLPISPSAMNMGIKQIHGTATVYLDGGKFVALQSPDPRYTESMYYIDPQGVRYGVPNAETAKSLGLSSPQNAPWEIVRLLVDGPVLSKDAALLEHDTLPADPSPRKVPAGASGAP | glycan array binding signal (z-score) | [28] | -0.819
same | glycan array binding signal (z-score) | [29] | -0.412
